Assay results from the supplement of paper PMC10849652.
The list shows a part of the results.

Sequences of proteins named here, by UniProt entry; tags and fusion partners are left off. A change or cut given only in a name is not applied to a line headed by its entry.
UniProt Q96AT9: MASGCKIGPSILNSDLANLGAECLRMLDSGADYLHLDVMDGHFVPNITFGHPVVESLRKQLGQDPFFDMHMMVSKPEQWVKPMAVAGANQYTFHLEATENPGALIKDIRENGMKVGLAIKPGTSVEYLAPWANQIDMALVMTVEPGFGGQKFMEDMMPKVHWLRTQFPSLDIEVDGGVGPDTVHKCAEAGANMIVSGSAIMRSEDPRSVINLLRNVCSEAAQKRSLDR
UniProt P10301: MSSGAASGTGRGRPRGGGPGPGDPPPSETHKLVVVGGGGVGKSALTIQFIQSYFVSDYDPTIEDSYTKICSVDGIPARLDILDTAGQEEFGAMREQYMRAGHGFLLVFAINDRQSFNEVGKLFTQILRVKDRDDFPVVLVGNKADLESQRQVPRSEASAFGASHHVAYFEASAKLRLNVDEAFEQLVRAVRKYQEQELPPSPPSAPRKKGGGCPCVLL
UniProt P27694, whole entry, looked up: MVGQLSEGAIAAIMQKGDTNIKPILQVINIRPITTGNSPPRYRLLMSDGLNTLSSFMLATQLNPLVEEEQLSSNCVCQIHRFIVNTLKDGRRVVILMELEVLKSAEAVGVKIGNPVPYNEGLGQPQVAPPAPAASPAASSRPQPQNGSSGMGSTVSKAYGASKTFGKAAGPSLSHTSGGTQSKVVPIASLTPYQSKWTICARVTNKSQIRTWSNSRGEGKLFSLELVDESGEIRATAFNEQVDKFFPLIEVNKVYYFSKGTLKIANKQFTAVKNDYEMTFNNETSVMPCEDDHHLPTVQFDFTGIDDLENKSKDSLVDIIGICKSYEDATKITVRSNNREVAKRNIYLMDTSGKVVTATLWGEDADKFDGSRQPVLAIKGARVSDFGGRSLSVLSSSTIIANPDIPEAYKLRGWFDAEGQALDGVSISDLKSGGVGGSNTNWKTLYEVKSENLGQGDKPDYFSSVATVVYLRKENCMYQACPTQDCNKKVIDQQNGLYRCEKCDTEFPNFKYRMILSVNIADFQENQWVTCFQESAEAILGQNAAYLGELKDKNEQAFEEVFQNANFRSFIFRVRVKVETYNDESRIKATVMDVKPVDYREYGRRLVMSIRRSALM
UniProt Q15349, whole entry, looked up: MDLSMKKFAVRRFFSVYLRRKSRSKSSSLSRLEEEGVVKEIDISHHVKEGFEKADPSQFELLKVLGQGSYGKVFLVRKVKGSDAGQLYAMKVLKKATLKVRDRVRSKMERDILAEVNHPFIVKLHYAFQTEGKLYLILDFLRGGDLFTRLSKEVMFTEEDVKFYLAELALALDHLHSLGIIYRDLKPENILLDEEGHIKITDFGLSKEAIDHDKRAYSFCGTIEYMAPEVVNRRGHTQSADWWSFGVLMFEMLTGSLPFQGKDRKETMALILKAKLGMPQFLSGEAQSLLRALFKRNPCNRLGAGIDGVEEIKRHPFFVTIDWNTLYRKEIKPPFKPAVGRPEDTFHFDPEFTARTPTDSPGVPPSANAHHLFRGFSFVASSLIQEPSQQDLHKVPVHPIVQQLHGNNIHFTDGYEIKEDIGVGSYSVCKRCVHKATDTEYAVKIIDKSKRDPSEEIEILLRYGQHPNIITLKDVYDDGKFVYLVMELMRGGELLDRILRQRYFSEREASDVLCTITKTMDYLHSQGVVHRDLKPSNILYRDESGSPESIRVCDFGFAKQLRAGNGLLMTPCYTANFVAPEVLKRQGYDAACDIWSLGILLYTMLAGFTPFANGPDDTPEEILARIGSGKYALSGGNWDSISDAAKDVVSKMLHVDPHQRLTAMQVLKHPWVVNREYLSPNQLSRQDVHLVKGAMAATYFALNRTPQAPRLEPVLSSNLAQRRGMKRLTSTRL
UniProt Q96S38: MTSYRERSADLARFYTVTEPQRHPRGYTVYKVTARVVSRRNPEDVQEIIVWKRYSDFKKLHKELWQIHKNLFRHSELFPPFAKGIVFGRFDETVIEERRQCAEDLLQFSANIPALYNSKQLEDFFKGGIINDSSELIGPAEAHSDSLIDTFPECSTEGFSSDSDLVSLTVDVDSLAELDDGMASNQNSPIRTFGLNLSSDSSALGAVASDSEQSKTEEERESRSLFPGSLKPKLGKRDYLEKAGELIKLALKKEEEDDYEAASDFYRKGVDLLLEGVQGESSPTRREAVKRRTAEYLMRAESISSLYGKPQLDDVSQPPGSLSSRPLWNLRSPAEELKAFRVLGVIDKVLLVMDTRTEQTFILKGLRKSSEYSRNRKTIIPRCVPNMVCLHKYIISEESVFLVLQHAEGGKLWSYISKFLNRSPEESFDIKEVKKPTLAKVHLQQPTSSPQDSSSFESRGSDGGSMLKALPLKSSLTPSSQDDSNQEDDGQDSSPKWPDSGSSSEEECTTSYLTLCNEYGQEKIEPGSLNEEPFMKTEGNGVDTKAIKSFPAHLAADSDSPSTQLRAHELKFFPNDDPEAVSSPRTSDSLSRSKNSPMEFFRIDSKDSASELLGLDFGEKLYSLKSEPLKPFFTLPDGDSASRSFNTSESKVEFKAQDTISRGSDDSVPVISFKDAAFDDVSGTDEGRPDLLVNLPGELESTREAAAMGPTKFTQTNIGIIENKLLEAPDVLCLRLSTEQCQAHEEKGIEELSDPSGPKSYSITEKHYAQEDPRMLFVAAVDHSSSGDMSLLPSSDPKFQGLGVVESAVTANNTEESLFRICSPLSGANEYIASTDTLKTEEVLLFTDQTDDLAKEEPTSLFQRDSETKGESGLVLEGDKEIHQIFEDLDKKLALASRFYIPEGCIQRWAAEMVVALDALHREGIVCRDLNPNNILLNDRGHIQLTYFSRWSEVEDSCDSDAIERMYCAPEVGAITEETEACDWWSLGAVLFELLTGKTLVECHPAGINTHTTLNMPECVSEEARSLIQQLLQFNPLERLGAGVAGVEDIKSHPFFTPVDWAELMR
UniProt Q9BUL9: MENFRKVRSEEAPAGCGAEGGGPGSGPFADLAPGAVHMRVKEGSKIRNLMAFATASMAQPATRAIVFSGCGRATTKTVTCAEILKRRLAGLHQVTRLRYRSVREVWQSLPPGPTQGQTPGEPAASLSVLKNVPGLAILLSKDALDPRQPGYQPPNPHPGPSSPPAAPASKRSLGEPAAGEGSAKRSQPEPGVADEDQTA
UniProt P05387, whole entry, looked up: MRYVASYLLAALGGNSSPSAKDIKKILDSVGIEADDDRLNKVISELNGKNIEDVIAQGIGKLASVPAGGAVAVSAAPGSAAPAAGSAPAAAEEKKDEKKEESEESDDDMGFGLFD
UniProt P35244: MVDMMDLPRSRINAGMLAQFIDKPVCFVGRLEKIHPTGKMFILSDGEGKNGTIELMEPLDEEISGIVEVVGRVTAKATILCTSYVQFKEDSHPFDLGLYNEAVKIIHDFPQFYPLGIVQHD
UniProt O60942: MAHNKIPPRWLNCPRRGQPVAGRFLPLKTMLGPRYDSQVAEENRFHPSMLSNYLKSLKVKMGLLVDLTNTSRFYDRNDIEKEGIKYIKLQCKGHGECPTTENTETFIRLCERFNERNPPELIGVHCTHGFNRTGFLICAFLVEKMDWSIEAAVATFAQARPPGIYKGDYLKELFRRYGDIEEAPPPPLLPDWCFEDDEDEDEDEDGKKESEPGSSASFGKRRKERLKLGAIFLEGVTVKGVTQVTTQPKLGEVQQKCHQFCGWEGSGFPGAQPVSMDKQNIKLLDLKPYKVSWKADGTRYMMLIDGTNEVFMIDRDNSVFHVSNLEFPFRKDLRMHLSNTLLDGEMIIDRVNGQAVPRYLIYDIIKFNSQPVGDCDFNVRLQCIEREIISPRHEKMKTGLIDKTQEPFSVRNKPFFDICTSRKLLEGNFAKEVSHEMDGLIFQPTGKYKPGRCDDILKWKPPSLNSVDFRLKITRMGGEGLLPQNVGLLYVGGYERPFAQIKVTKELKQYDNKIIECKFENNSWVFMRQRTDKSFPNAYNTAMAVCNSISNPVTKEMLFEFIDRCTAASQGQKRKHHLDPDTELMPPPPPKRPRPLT
UniProt Q9HB90, whole entry, looked up: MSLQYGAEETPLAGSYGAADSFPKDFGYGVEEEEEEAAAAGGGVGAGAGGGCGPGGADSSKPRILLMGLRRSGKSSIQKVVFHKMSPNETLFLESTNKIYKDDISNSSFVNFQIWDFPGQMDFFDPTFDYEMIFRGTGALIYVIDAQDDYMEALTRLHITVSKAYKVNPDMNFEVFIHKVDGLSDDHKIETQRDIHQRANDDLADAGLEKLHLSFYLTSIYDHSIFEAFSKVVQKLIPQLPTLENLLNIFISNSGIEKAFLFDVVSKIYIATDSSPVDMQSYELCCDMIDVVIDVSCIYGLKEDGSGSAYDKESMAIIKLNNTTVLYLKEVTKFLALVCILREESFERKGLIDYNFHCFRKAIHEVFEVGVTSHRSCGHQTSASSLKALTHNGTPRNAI
UniProt Q9H4P4: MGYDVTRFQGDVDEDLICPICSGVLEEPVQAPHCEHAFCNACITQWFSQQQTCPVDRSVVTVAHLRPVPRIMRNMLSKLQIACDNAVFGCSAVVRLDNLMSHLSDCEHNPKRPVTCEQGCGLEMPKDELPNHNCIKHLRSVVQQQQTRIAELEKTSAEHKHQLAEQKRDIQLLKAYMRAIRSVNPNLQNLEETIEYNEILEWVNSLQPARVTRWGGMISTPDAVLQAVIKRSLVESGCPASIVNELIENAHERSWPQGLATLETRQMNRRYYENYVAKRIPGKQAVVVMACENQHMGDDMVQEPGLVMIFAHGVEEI
UniProt P31350, whole entry, looked up: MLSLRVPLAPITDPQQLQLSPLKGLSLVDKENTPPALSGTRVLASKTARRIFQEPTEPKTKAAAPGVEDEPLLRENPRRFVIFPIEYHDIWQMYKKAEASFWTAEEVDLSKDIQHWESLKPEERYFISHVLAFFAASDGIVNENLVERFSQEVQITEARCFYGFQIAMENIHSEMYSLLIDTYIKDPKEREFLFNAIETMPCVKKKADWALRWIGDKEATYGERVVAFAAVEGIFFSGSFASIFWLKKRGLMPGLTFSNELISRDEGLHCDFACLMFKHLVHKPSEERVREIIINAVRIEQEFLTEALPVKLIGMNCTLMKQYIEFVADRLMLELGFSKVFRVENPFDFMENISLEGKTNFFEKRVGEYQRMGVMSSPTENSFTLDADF
UniProt Q99942: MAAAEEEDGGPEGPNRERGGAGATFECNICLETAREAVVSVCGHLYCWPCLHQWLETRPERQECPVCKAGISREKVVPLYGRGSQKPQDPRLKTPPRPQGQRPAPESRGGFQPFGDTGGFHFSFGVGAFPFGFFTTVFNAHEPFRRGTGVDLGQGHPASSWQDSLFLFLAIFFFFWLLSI
UniProt Q96BH1: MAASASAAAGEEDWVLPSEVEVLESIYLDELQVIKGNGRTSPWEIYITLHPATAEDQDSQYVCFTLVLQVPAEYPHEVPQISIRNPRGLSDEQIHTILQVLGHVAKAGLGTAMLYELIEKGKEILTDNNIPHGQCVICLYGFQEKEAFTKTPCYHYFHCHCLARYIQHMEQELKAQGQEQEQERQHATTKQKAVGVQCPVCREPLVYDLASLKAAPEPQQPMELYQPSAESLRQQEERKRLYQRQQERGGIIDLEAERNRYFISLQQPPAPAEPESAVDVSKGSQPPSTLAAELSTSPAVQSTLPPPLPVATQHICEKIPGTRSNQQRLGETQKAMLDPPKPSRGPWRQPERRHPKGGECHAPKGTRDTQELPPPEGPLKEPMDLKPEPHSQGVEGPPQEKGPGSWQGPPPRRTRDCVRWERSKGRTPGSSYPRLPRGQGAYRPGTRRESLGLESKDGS
UniProt P04843: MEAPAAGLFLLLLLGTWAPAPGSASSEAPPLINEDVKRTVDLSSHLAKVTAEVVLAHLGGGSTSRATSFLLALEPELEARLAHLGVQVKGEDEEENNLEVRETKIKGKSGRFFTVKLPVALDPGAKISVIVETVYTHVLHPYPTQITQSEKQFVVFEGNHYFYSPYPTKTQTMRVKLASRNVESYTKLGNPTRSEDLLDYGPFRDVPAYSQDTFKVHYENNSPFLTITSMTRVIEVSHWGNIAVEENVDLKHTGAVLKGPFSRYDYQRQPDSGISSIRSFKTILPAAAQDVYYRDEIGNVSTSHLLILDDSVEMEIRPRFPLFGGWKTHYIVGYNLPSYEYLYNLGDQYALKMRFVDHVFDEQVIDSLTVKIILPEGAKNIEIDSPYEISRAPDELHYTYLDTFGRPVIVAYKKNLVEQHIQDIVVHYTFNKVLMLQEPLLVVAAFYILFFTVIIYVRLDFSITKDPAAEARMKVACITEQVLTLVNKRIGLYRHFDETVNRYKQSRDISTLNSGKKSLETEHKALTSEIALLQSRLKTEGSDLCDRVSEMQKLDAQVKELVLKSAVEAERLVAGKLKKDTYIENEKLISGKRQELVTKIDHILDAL
UniProt Q9NQG5: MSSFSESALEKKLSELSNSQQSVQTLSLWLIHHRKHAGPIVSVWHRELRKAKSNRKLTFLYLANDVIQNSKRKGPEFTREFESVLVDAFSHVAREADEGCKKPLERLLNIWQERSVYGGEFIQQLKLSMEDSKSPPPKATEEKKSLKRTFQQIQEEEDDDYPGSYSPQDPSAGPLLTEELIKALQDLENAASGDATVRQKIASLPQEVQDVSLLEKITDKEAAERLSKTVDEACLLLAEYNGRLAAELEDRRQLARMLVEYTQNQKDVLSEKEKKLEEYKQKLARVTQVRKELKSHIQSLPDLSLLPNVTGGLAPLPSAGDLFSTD

Key:
Test in all cases: log2 fold change, soluble protein after heating vs DMSO (PISA); higher = thermal stabilisation; K562 cells, 10 uM, 30 min; active = over 0.2 and 3.5 SD of the protein, either way, in both replicates (recomputed)
[1] = compound: C1=CC=C(C=C1)[C@H](COC2=CC3=C(C=C2)NC(=O)N3)NC(=O)C4=CC=CN(C4=O)CC5=CC(=C(C=C5)F)F
How it was run: (§1)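 K562 cells at 2×10^6 cells/mL were treated with 10 μM compound for 30 min. Aliquots were heated for 3 min across 48°C-58°C, pooled, and extracted in PBS with 0.5% NP-40 at 4°C; soluble protein was the supernatant after 21,000xg for 90 min. Soluble protein was quantified by TMTpro 16plex LC-MS/MS with channel sums equalised, and reported as log2 fold change in thermal stability against DMSO controls, with values from duplicates.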

[2] = compound: CC1=C(SC2=C1C(=N[C@H](C3=NN=C(N32)C)CC(=O)N)C4=CC=C(C=C4)Cl)C
How it was run: as §1

[3] = compound: CC1=C2C(=CC=C1)N=C(N(C2=O)C3=CC=CC=C3C)CN4C=NC5=C(N=CN=C54)N
How it was run: as §1

[4] = compound: Cc1sc2c(c1C)C(c1ccc(Cl)cc1)=N[C@@H](CC(=O)OC(C)(C)C)c1nnc(C)n1-2
How it was run: as §1

[5] = compound: c1ccc([C@@H]2C[C@H]2NC2CCNCC2)cc1
How it was run: as §1

Measured: log2 fold change

RPE (UniProt Q96AT9)
inactive: [1] -0.048 | [2] 0.038 | [3] -0.033 | [4] -0.136 | [5] 0.068

RPS18 (UniProt P62269)
inactive: [1] 0.088 | [2] -0.125 | [3] -0.04 | [4] 0.099 | [5] 0.004

RRAS (UniProt P10301)
inactive: [1] 0.039 | [2] 0.004 | [3] 0.034 | [4] -0.012 | [5] 0.029

RPL31 (UniProt P62899)
inactive: [1] 0.106 | [2] -0.241 | [3] -0.22 | [4] 0.202 | [5] 0

RPL10 (UniProt F8W7C6)
inactive: [1] 0.011 | [2] -0.208 | [3] -0.265 | [4] 0.167 | [5] 0.176

RPL7 (UniProt P18124)
inactive: [1] 0.293 | [2] -0.502 | [3] -0.694 | [4] 0.345 | [5] 0

RPL29 (UniProt P47914)
inactive: [1] 0.22 | [2] -0.517 | [3] -0.579 | [4] 0.239 | [5] 0

RPL8 (UniProt P62917)
inactive: [1] 0.236 | [2] -0.601 | [3] -0.765 | [4] 0.355 | [5] 0

RPL38 (UniProt P63173)
inactive: [1] 0.012 | [2] -0.03 | [3] -0.046 | [4] 0.053 | [5] 0.013

RPL36AL (UniProt Q969Q0)
inactive: [1] 0.099 | [2] -0.36 | [3] -0.322 | [4] 0.192 | [5] 0

RREB1 isoform 2 (UniProt Q92766)
inactive: [1] 0.042 | [2] -0.065 | [3] 0.055 | [4] 0.046 | [5] -0.043

RPS27 (UniProt P42677)
inactive: [1] 0.042 | [2] 0.029 | [3] -0.027 | [4] 0.091 | [5] -0.172

RPP40 (UniProt O75818)
inactive: [1] 0.027 | [2] -0.023 | [3] -0.084 | [4] 0.011 | [5] 0.002

RPS6KB1 (UniProt P23443)
inactive: [1] -0.072 | [2] 0.032 | [3] 0.002 | [4] -0.003 | [5] -0.029

RNF40 (UniProt O75150)
inactive: [1] 0.059 | [2] -0.048 | [3] 0.283 | [4] -0.126 | [5] -0.002

RPA1 (UniProt P27694)
inactive: [1] -0.032 | [2] 0.025 | [3] 0.087 | [4] -0.047 | [5] 0.011

RPS6KA2 isoform 2 (UniProt Q15349)
inactive: [1] -0.016 | [2] 0.045 | [3] 0.087 | [4] -0.015 | [5] -0.02

RPS7 (UniProt P62081)
inactive: [1] 0.077 | [2] -0.181 | [3] -0.224 | [4] 0.159 | [5] 0.019

RPS6KC1 (UniProt Q96S38)
inactive: [1] -0.03 | [2] -0.072 | [3] 0.022 | [4] -0.091 | [5] -0.009

RPP25 (UniProt Q9BUL9)
inactive: [1] 0.006 | [2] -0.059 | [3] -0.009 | [4] 0.074 | [5] -0.039

RO60 (UniProt P10155)
inactive: [1] 0.057 | [2] -0.002 | [3] 0.03 | [4] 0.026 | [5] 0.033

RPS21 (UniProt P63220)
inactive: [1] -0.008 | [2] -0.047 | [3] 0.028 | [4] 0.017 | [5] 0.02

RPL26 (UniProt P61254)
inactive: [1] 0.232 | [2] -0.424 | [3] -0.863 | [4] 0.155 | [5] -0.023

RPLP2 (UniProt P05387)
inactive: [1] 0.142 | [2] -0.389 | [3] -0.571 | [4] 0.19 | [5] 0.031

RPL17 isoform 3 (UniProt P18621)
inactive: [1] 0.27 | [2] -0.392 | [3] -0.386 | [4] 0.239 | [5] 0

RPL21 (UniProt P46778)
inactive: [1] 0.277 | [2] -0.597 | [3] -0.71 | [4] 0.373 | [5] 0.006

RPA3 (UniProt P35244)
inactive: [1] 0.008 | [2] 0.09 | [3] -0.055 | [4] -0.146 | [5] -0.03

RNGTT (UniProt O60942)
inactive: [1] -0.055 | [2] 0.148 | [3] 0.085 | [4] -0.048 | [5] 0.004

RPL6 (UniProt Q02878)
inactive: [1] 0.281 | [2] -0.411 | [3] -0.6 | [4] 0.326 | [5] -0.008

RPL3L (UniProt Q92901)
inactive: [1] 0.226 | [2] -0.475 | [3] -0.739 | [4] 0.327 | [5] 0

RPS11 (UniProt P62280)
inactive: [1] 0.12 | [2] -0.292 | [3] -0.285 | [4] 0.18 | [5] 0

RRAGC (UniProt Q9HB90)
inactive: [1] 0.009 | [2] 0.104 | [3] 0.095 | [4] -0.041 | [5] 0.009

RPS25 (UniProt P62851)
inactive: [1] 0.046 | [2] -0.166 | [3] -0.139 | [4] 0.09 | [5] 0.002

RNF41 (UniProt Q9H4P4)
inactive: [1] 0.039

RPL37A (UniProt P61513)
inactive: [1] 0.261 | [2] -0.52 | [3] -0.641 | [4] 0.274 | [5] -0.068

RPL22 (UniProt P35268)
inactive: [1] 0.099 | [2] -0.175 | [3] -0.109 | [4] 0.13 | [5] -0.019

RPP30 (UniProt Q5VU11)
inactive: [1] -0.123

RPS13 (UniProt P62277)
inactive: [1] 0.142 | [2] -0.234 | [3] -0.246 | [4] 0.213 | [5] 0

RRM2 isoform 2 (UniProt P31350)
inactive: [1] -0.012 | [2] 0.026 | [3] -0.018 | [4] -0.033 | [5] -0.002

RPL27 (UniProt P61353)
inactive: [1] 0.208 | [2] -0.532 | [3] -0.696 | [4] 0.249 | [5] 0

RPL3 (UniProt P39023)
inactive: [1] 0.274 | [2] -0.521 | [3] -0.601 | [4] 0.358 | [5] -0.001

RPL12 (UniProt P30050)
inactive: [1] 0.23 | [2] -0.517 | [3] -0.382 | [4] 0.268 | [5] 0

RPL28 (UniProt P46779)
inactive: [1] 0.244 | [2] -0.491 | [3] -0.564 | [4] 0.31 | [5] -0.001

RPS2 (UniProt P15880)
inactive: [1] 0.123 | [2] -0.222 | [3] -0.222 | [4] 0.113 | [5] 0

RPA2 isoform 3 (UniProt P15927)
inactive: [1] 0 | [2] 0.083 | [3] 0.045 | [4] 0.022 | [5] 0.008

RPAP1 (UniProt Q9BWH6)
inactive: [1] -0.013 | [2] 0.071 | [3] 0.022 | [4] 0.028 | [5] -0.007

RNF5 (UniProt Q99942)
inactive: [1] -0.078 | [2] 0.025 | [3] 0.072 | [4] -0.05 | [5] -0.012

RRM1 (UniProt P23921)
inactive: [1] -0.011 | [2] 0.029 | [3] -0.033 | [4] -0.023 | [5] 0.011

RNF25 (UniProt Q96BH1)
inactive: [1] -0.008 | [2] 0.019 | [3] 0.1 | [4] -0.044 | [5] -0.024

RPN1 (UniProt P04843)
inactive: [1] -0.01 | [2] 0.052 | [3] 0.019 | [4] -0.016 | [5] 0.002

Quoted from above (five entries):
RNF40 (UniProt O75150)
inactive: [1] 0.059 | [2] -0.048 | [3] 0.283 | [4] -0.126 | [5] -0.002

RPA1 (UniProt P27694)
inactive: [1] -0.032 | [2] 0.025 | [3] 0.087 | [4] -0.047 | [5] 0.011

RPS6KA2 isoform 2 (UniProt Q15349)
inactive: [1] -0.016 | [2] 0.045 | [3] 0.087 | [4] -0.015 | [5] -0.02

RPS7 (UniProt P62081)
inactive: [1] 0.077 | [2] -0.181 | [3] -0.224 | [4] 0.159 | [5] 0.019

RPS6KC1 (UniProt Q96S38)
inactive: [1] -0.03 | [2] -0.072 | [3] 0.022 | [4] -0.091 | [5] -0.009

(next part)

RPL14 (UniProt P50914)
inactive: [1] 0.225 | [2] -0.426 | [3] -0.758 | [4] 0.271 | [5] -0.023

RPL15 (UniProt P61313)
inactive: [1] 0.297 | [2] -0.647 | [3] -0.728 | [4] 0.385 | [5] 0

RPL9 (UniProt P32969)
inactive: [1] 0.159 | [2] -0.491 | [3] -0.585 | [4] 0.322 | [5] -0.005

RPRD1B (UniProt Q9NQG5)
inactive: [1] -0.006 | [2] 0.06 | [3] 0.043 | [4] 0.009 | [5] 0.014

RPS28 (UniProt P62857)
inactive: [1] -0.022 | [2] -0.184 | [3] -0.081 | [4] 0.063 | [5] -0.001
